Results are given in words; binding and its absence hold for the method and conditions named. A result given as binding can be weak or reduced; the word gives no strength. Sequences can lack the tags named with a protein.
T1: BD-BAK1 (DNA-binding domain fused to the cytoplasmic domain of AtBAK1) (A. thaliana) (UniProt Q94F62)
T1 sequence: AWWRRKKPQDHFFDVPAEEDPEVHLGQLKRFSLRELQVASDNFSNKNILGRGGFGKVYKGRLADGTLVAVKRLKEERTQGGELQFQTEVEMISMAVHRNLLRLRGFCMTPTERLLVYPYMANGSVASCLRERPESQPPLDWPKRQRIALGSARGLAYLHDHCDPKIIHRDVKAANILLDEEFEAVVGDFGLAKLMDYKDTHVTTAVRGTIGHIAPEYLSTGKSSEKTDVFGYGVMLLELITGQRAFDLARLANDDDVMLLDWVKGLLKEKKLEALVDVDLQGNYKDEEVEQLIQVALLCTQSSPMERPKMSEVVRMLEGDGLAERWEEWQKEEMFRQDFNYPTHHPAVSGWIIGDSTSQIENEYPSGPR


Experiments:
[1] = molecular target: T1, BD-BAK1 (DNA-binding domain fused to the cytoplasmic domain of AtBAK1) (A. thaliana); test: two-hybrid; yeast strain AH109; SlBIR3 cytoplasmic domain in pGADT7 (prey), AtBAK1 or SlBAK1 cytoplasmic domain in pGBKT7 (bait); growth on SD/-Leu-Trp-His-Ade and X-alpha-Gal, 30 °C, 4 days
[2] = molecular target: MBP-SlBIR3 (MBP-tagged SlBIR3 cytoplasmic domain) (tomato (Solanum lycopersicum)); test: pull-down; MBP fusion immobilised on amylose resin as bait; 3 ug FLAG fusion protein in 120 uL incubation buffer (1 mM NaCl, 20 mM MgCl2, 0.5% Triton X-100, 0.1 M HEPES pH 7.2), 1 h, 4 °C; 5 washes; anti-FLAG Western blot; both purified

Row | binding [1] | binding [2] | Molecule
1 | binds |  | AD-SlBIR3 (activation domain fused to the cytoplasmic domain of SlBIR3) (tomato (Solanum lycopersicum)) (domain or fragment)
2 |  | binds | FLAG-tagged BAK1 cytoplasmic domain (domain or fragment, UniProt Q94F62 247-615) AWWRRKKPQDHFFDVPAEEDPEVHLGQLKRFSLRELQVASDNFSNKNILGRGGFGKVYKGRLADGTLVAVKRLKEERTQGGELQFQTEVEMISMAVHRNLLRLRGFCMTPTERLLVYPYMANGSVASCLRERPESQPPLDWPKRQRIALGSARGLAYLHDHCDPKIIHRDVKAANILLDEEFEAVVGDFGLAKLMDYKDTHVTTAVRGTIGHIAPEYLSTGKSSEKTDVFGYGVMLLELITGQRAFDLARLANDDDVMLLDWVKGLLKEKKLEALVDVDLQGNYKDEEVEQLIQVALLCTQSSPMERPKMSEVVRMLEGDGLAERWEEWQKEEMFRQDFNYPTHHPAVSGWIIGDSTSQIENEYPSGPR

Source: PMC5618615
